The other results are listed elsewhere or left out. Many values rest on one well or one pass, so single values are uncertain.
Legend:
[1] = test system: MEPP (mouse ovarian epithelium Trp53/Pten KO); assay: cell viability relative to untreated (fraction); higher = less growth inhibition; conditions: 5 µM; 3 days
[2] = test system: PREPP (mouse prostate epithelium Trp53/Pten KO); assay: as above; conditions: 5 µM; 3 days

Structure (SMILES) | cell viability [1] | cell viability [2]
COc1cc2c(cc1O)C[C@@H]1NCCc3cc(OC)c(O)c-2c31 | 0.965 | 0.794
O=C1C=CC[C@@H]2[C@H]3CCCN4CCC[C@@H](CN12)[C@@H]34 | 0.867 | 0.91
N#CCc1c[nH]c2ccccc12 | 1.02 | 0.949
CC(C)[C@]12O[C@H]1[C@@H]1O[C@]13[C@]1(O[C@H]1C[C@H]1C4=C(CC[C@@]13C)C(=O)OC4)[C@@H]2O | 0.539 | 0.547
O=c1ccc2cc(O[C@@H]3O[C@H](CO)[C@@H](O)[C@H](O)[C@H]3O)c(O)cc2o1 | 0.827 | 1

From the supplement of paper PMC12873370
